Laboratory results reported in patent US20220146526A1, “METHOD FOR EVALUATING SAMPLE, ANALYSIS METHOD, METHOD FOR DETECTING DEGRADED SAMPLE, MARKER FOR DETECTING DEGRADED BLOOD PLASMA SAMPLE, AND MARKER FOR DETECTING DEGRADED SERUM SAMPLE” (SHIMADZU CORPORATION, priority 2019, published 2022).

Columns and labels:
Assay type in all cases: physicochemical, human
[1] = LC/MS of serum sample: time from blood collection to centrifugation (Table J)
Description: (§1) After standing, the blood sample was subjected to centrifugation under a condition of room temperature, 3500 rpm, and 5 minutes. […] After centrifugation, the blood-collecting vessel was left to stand at room temperature, and the serum was isolated during this time. Here, in order to investigate how the detection intensity of molecules contained in the sample was affected in cases where the time during which the blood-collecting vessel was left at room temperature was set to 1 hour and 6 hours as compared to that in a case where the time was set to 30 minutes, preparations were performed under the respective conditions of 30 minutes, 1 hour, and 6 hours. The obtained serum sample was frozen and stored. Here, in order to investigate how the detection intensity of molecules contained in the sample was affected in cases where freezing and thawing was performed 4 times, 6 times, and 10 times after freezing as compared to that in a case where freezing and thawing was performed 2 times after freezing, freezing and thawing was performed under the respective conditions of 2, 4, 6, and 10 times.
(§2) Frozen blood plasma samples and serum samples were subjected to GC/MS or LC/MS. In GC/MS, the blood plasma samples and serum samples were subjected to methoxymation and trimethylsilylation and then introduced to GC-MS.
(§3) Analysis column: Discovery HS F5-3 (inner diameter of 2.1 mm, length of 150 mm, film thickness of 3 μm) (Sigma-Aldrich)
(§4) Column temperature: 40° C.
(§5) (A) 0.1% formic acid (dissolved in water)
(§6) (B) 0.1% formic acid (dissolved in acetonitrile)
(§7) Flow velocity: 0.25 mL/min
(§8) Ionization method: electrospray
(§9) Temperature: • Desolvation Line (DL) temperature: 250° C. • Heat block temperature: 400° C. • Interface temperature: 300° C.
(§10) Gas flow rate: • Nebulizer gas flow rate: 3.0 L/min • Drying gas flow rate: 10.0 L/min • Heating gas flow rate: 10.0 L/min
Mode: multiple reaction monitoring (MRM) […]

[2] = LC/MS of blood plasma sample: time from blood collection to cooling of blood (Table E); conditions: detection intensity, blood collection to cooling 5 minutes or more vs 1 minute or less
Description: At room temperature, 5 mL of blood from a healthy subject was taken into a blood-collecting vessel containing EDTA, and the blood-collecting vessel was inverted for mixing, then cooled, and allowed to stand at 4° C. Here, in order to investigate how the detection intensity of molecules contained in the sample was affected in a case where the time to cooling was set to 5 minutes or more as compared to that in a case where the time to cooling was set to 1 minute or less, preparations were performed under both the former condition and the latter condition. After standing, the blood sample was subjected to centrifugation under a condition of 4° C., 3000 rpm, and 15 minutes. […] After centrifugation, the blood-collecting vessel was left to stand at room temperature for 30 minutes, and the blood plasma was isolated during this 30 minutes. The obtained blood plasma sample was frozen and stored. Here, in order to investigate how the detection intensity of molecules contained in the sample was affected in cases where freezing and thawing was performed 4 times, 6 times, and 10 times after freezing as compared to that in a case where freezing and thawing was performed 2 times after freezing, freezing and thawing was performed under the respective conditions of 2, 4, 6, and 10 times.
Frozen blood plasma samples and serum samples were subjected to GC/MS or LC/MS. […]

[3] = LC/MS of serum sample: number of times of freezing and thawing (Table M); set-up: key to Rate of increase or decrease: detection intensity relative to 1 at 2 freeze-thaw cycles
Description: as §1, §2, §3, §4, §5, §6, §7, §8, §9, §10
Mode: multiple reaction monitoring (MRM)
The rate of increase or decrease in Table M is the value of detection intensity relative to 1 that is the detection intensity in a case where the number of times of freezing and thawing is set to 2 times.

Rate of increase or decrease ([1]; after 4 hours from blood collection to centrifugation, detection intensity relative to 1 at 15 minutes): 1.48
Increase or decrease ([1]; serum sample, LC/MS, detection intensity vs 15 minutes from blood collection to centrifugation): Increase
Time when compound is affected ([1]; serum sample, LC/MS, time from blood collection to centrifugation, detection intensity changed by 30% or more vs 15 minutes): After 4 hours
Increase or decrease [2]: Increase
Rate of increase or decrease ([3]; 10 times of freezing and thawing, detection intensity relative to 1 at 2 times): 1.31
Number of times when compound is affected ([3]; serum sample, LC/MS, detection intensity changed by 30% or more vs 2 times of freezing and thawing): 10 times
Increase or decrease ([3]; serum sample, LC/MS, detection intensity vs 2 times of freezing and thawing): Increase
SMILES: NCCC[C@H](N)C(=O)O [Ornithine]
